In paper PMC5309790:
Positions count from the first letter of the chain named. No constants are given. Whether binding was seen depends on the method and setting. Binding seen in cells or lysates may run through a third protein. Some binding calls cover weakened binding; strength is not graded here. For part of these data: Sequences can lack the tags named with a protein. One block for each binder: values may come before it.

How the values were obtained:
[1] = molecular target: T1, Flag-RIP1 (Flag tag knocked in at the N-terminal of Rip1 in L929 cells) (mouse (endogenous in L929)), Q60855; assay: co-IP; necrosome immunoprecipitation from L929 cells (Flag-RIP1 knock-in or RIP1 KO reconstituted with RIP1 variants) treated with mTNF + zVAD, with or without BHA/amytal; anti-Flag M2 beads at 4 °C overnight; blots with anti-RIP1, anti-RIP3, anti-FADD; conditions: remark: other sources report otherwise
T1 chain: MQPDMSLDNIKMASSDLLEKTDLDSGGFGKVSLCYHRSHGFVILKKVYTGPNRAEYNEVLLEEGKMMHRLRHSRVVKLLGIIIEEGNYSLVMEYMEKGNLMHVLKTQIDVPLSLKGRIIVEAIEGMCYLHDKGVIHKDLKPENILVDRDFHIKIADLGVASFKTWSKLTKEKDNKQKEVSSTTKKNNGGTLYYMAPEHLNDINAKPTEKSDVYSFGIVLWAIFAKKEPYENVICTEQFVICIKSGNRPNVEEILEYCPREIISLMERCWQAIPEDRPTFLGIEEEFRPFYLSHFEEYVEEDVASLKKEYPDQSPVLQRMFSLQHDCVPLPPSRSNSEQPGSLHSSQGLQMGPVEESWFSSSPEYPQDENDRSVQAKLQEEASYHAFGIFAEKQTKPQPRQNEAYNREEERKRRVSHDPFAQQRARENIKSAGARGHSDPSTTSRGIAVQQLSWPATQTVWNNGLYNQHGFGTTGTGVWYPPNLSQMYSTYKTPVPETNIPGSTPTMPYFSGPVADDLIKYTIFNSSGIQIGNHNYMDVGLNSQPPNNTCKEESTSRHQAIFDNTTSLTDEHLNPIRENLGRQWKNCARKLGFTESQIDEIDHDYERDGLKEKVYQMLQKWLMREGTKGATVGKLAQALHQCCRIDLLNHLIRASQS

[2] = molecular target: T2, Flag-tagged wildtype RIP1 reconstituted in RIP1 KO L929 cells (mouse), Q60855; assay: as above; conditions: remark: other sources report otherwise
T2 chain: T1 chain

[3] = molecular target: T3, Flag-tagged WT RIP1 expressed in RIP1 KO HEK293T cells (mouse), Q60855; assay: co-IP; co-expression in RIP1 KO HEK293T cell line and co-immunoprecipitation; details in Supplementary Fig. 7, not shown; conditions: remark: other sources report otherwise
T3 chain: T1 chain

[4] = molecular target: T4, TNF receptor 1 (TNFR1), endogenous in L929 cells (mouse (endogenous in L929)) (UniProt P25118); assay: co-IP; complex I immunoprecipitation from RIP1 KO L929 cells reconstituted with RIP1 variants; cells treated with 10 ng/ml Flag-mTNF, lysate precipitated with anti-Flag M2 beads at 4 °C overnight, western blotting
T4 sequence: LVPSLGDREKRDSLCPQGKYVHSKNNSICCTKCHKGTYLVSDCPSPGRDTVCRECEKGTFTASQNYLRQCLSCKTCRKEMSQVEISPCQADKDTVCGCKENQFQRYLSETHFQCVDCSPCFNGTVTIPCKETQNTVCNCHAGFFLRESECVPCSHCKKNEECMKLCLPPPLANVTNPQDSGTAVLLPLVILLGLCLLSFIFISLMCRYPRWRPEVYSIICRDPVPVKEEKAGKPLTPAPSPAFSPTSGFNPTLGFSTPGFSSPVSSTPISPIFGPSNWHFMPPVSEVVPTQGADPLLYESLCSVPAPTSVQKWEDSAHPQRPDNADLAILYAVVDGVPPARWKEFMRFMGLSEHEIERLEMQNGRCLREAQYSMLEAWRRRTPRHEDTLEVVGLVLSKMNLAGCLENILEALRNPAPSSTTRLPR

[5] = molecular target: T5, Flag-RIP1 (Flag tag knocked in at the N-terminal of Rip1 in L929 cells) (mouse (endogenous in L929)) (UniProt Q60855); assay: co-IP; necrosome immunoprecipitation from L929 cells (Flag-RIP1 knock-in or RIP1 KO reconstituted with RIP1 variants) treated with mTNF + zVAD, with or without BHA/amytal; anti-Flag M2 beads at 4 °C overnight; blots with anti-RIP1, anti-RIP3, anti-FADD
T5 sequence: T1 chain

[6] = molecular target: T6, Flag-tagged KK-AT RIP1 expressed in RIP1 KO HEK293T cells (mouse) (UniProt Q60855); assay: co-IP; co-expression in RIP1 KO HEK293T cell line and co-immunoprecipitation; details in Supplementary Fig. 7, not shown
T6 sequence: T1 chain with K45A, K46T

[7] = molecular target: T7, Flag-tagged WT RIP1 expressed in RIP1 KO HEK293T cells (mouse) (UniProt Q60855); assay: as above
T7 sequence: T1 chain

[8] = molecular target: T8, KK-AT-S161E RIP1 co-expressed in RIP1 KO HEK293T cells (mouse) (UniProt Q60855); assay: as above
T8 sequence: T1 chain with K45A, K46T, S161E

B1: RIP3, endogenous in L929 cells, Q9QZL0 1-486 (protein)
chain: MSSVKLWPTGASAVPLVSREELKKLEFVGKGGFGVVFRAHHRTWNHDVAVKIVNSKKISWEVKAMVNLRNENVLLLLGVTEDLQWDFVSGQALVTRFMENGSLAGLLQPECPRPWPLLCRLLQEVVLGMCYLHSLNPPLLHRDLKPSNILLDPELHAKLADFGLSTFQGGSQSGSGSGSGSRDSGGTLAYLDPELLFDVNLKASKASDVYSFGILVWAVLAGREAELVDKTSLIRETVCDRQSRPPLTELPPGSPETPGLEKLKELMIHCWGSQSENRPSFQDCEPKTNEVYNLVKDKVDAAVSEVKHYLSQHRSSGRNLSAREPSQRGTEMDCPRETMVSKMLDRLHLEEPSGPVPGKCPERQAQDTSVGPATPARTSSDPVAGTPQIPHTLPFRGTTPGPVFTETPGPHPQRNQGDGRHGTPWYPWTPPNPMTGPPALVFNNCSEVQIGNYNSLVAPPRTTASSSAKYDQAQFGRGRGWQPFHK
binding [1]: binds
binding [2]: binds

binding [3]: binds
B2: RIP3 co-expressed with RIP1 in RIP1 KO HEK293T cells, Q9QZL0 1-486 (protein)
chain: B1 chain

B3: TRADD, endogenous in L929 cells (protein, UniProt Q3U0V2 1-310)
chain: MAAGQNGHEEWVGSAYLFLESAVDKVILSEAYTDPKKKVAIYKALQTALSESGDSSDVLQILKIHCSDPQLIVQLRFCGRVLCGRFLQAYREGALRTALQRCMAPALAQEALRLQLELRAGAEQLDSWLTDEERCLNYILAQKPDRLRDEELAELEDELCKLTCDCTGQGGAIQVASAGSKFPVSSPTEEKPLPAACQTFLFHGQLVVNRPLTLQDQQTFARSVGLKWRRVGRSLQRNCRALRDPALDSLAYEYERDGLYEQAFQLLRRFMQAEGRRATLQRLVEALEENELTSLAEDLLGQAEPDGGLA
binding [4]: binds

B4: TRAF2, endogenous in L929 cells (protein, UniProt P39429 1-501)
chain: MAAASVTSPGSLELLQPGFSKTLLGTRLEAKYLCSACKNILRRPFQAQCGHRYCSFCLTSILSSGPQNCAACVYEGLYEEGISILESSSAFPDNAARREVESLPAVCPNDGCTWKGTLKEYESCHEGLCPFLLTECPACKGLVRLSEKEHHTEQECPKRSLSCQHCRAPCSHVDLEVHYEVCPKFPLTCDGCGKKKIPRETFQDHVRACSKCRVLCRFHTVGCSEMVETENLQDHELQRLREHLALLLSSFLEAQASPGTLNQVGPELLQRCQILEQKIATFENIVCVLNREVERVAVTAEACSRQHRLDQDKIEALSNKVQQLERSIGLKDLAMADLEQKVSELEVSTYDGVFIWKISDFTRKRQEAVAGRTPAIFSPAFYTSRYGYKMCLRVYLNGDGTGRGTHLSLFFVVMKGPNDALLQWPFNQKVTLMLLDHNNREHVIDAFRPDVTSSSFQRPVSDMNIASGCPLFCPVSKMEAKNSYVRDDAIFIKAIVDLTGL
binding [4]: binds

B5: FADD, endogenous in L929 cells (protein, UniProt Q61160 1-205)
chain: MDPFLVLLHSLSGSLSGNDLMELKFLCRERVSKRKLERVQSGLDLFTVLLEQNDLERGHTGLLRELLASLRRHDLLQRLDDFEAGTATAAPPGEADLQVAFDIVCDNVGRDWKRLARELKVSEAKMDGIEEKYPRSLSERVRESLKVWKNAEKKNASVAGLVKALRTCRLNLVADLVEEAQESVSKSENMSPVLRDSTVSSSETP
binding [5]: binds

binding [6]: binds
binding [7]: binds
binding [8]: binds
B6: FADD co-expressed with RIP1 in RIP1 KO HEK293T cells (protein, UniProt Q61160 1-205)
chain: B5 chain
